## Primary screen of a compound library

Each number is a percent effect as filed.
The controls that fix the scale are not given in the record; negative values are as filed.
Compounds were drawn at random from those tested, without regard to their results.

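Whole-cell assay for inhibitors of Mycobacterium tuberculosis growth, labelled Cornell in the record; the read-out is not stated. The concentration is filed as 10 mM, unlikely as a test dose, so the dose is not known. The record gives no direction; compounds strong in two other growth screens of this library score well above the rest, so higher reads as stronger inhibition. Size under these conditions: about 53,000 compounds, about 900 of them at 50% or above in at least one test.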

Compound	effect
O=C(c1[nH]nc(C2CC2)c1Cl)N1CCN(C2CC2)C(=O)C1	26.6%
Cc1n[nH]cc1CNC(C(=O)N1CCOCC1)c1ccccc1 (stereo unspecified)	-72.15%
Cc1nc(C)n(CC2CCCCN2Cc2nc3ccccc3o2)n1 (stereo unspecified)	-14.07%
O=C(O)C(F)(F)F.[H][C@@]12CCN(Cc3ccc(C)s3)C[C@@]1([H])[C@H](C(=O)NCC1CC1)CCO2	12.17%
Cc1noc(C)c1CNC(C(=O)N1CCOCC1)C(C)C (stereo unspecified)	11.77%
O=S1(=O)COCCN1Cc1ccc(F)c(F)c1	24.67%
O=C(NCc1ccccn1)C1CN(c2nc3ccccc3s2)CCN1 (stereo unspecified)	30.01%
Cc1n[nH]c(C)c1CCNC(=O)C1CCCN(Cc2ccco2)C1 (stereo unspecified)	-3.794%
CCc1cc(=O)[nH]c(-n2nc(C3CC3)cc2NC(=O)C2CC2)n1	108.9%
Cc1nc(Cn2cc(C#N)c(=O)c3ccccc32)no1	-9.005%
COc1cccc(-c2cc(C(=O)NCCn3nc(C)nc3C)[nH]n2)c1	18.04%
[H][C@]12CC[C@@H](Nc3cccnn3)[C@@]1([H])CN(Cc1c[nH]c3ccccc13)C2	36.12%
CCN(CC)Cc1ccc(C(=O)NC2CCc3cc(F)ccc32)o1 (stereo unspecified)	38.17%
CCc1c(C)sc2nc3n(CCN4CCCCC4)nc(SC)n3c(=O)c12	16.22%
CC(C)(C)c1nc(CN(CCO)Cc2cc(Br)ccc2F)no1	21.92%
Cn1nnnc1SCCNC(=O)c1cccc2ccnn12	-27.08%
Cc1ccc(C)c(N2CCN(CC3(O)CCNC3)CC2)c1 (stereo unspecified)	15.24%
COC1CN(C(=O)CC(C)(C)C)CCC(=O)N(C)c2ccccc21 (stereo unspecified)	-36.16%
O=C(O)C(F)(F)F.[H][C@@]12CCN(CCc3ccccc3)C[C@@]1([H])O[C@H](C(=O)NC1CCC1)C2	1.096%
CC[C@@H](c1ccccc1)n1c(C2CC2)n[nH]c1=O	12.1%
O=C(c1ccc(N2CCCC2)nn1)N1CCCC(n2cccn2)C1 (stereo unspecified)	13.4%
COc1ccc(C2CCCN2c2cnc3ccccc3n2)c(OC)c1 (stereo unspecified)	42.11%
Cn1ccnc1CN1CCN(CC(O)c2ccc(F)c(F)c2)CC1 (stereo unspecified)	-1.598%
O=C(O)CCC(=O)Nc1nn(Cc2ccc(F)cc2)cc1Cl	-38.99%
CC(=O)NCCCC(=O)NC1(c2ccc(Cl)c(Cl)c2)CC1	-8.984%
COCCC1(CO)CCCN(Cc2ccc(C#N)cc2)C1 (stereo unspecified)	23.4%
CC(C)(C)OC(=O)N1CCC(NCc2cnn(C(C)(C)C)c2)CC1	36.67%
Cc1ccc(CN2CCn3c(C(=O)N(C)C)cnc3C2)cc1.O=C(O)C(F)(F)F	5.178%
COCCN1CCC2(CC1)CC(CC(N)=O)c1ccc(F)cc12 (stereo unspecified)	8.9%

Once more, the final 2:

Cc1ccc(CN2CCn3c(C(=O)N(C)C)cnc3C2)cc1.O=C(O)C(F)(F)F gave 5.178%.
COCCN1CCC2(CC1)CC(CC(N)=O)c1ccc(F)cc12 (stereo unspecified) gave 8.9%.

Data taken from ChEMBL document CHEMBL3988442, “University of Dundee, Small-Polar-MMV Screening Library” (2021).